{
  "source": "patent US20080090297A1",
  "about": "“Methods for determining the metal bioavailability of metal sources” (Novus International Inc., priority 2006, published 2008)",
  "system": "metallothionein (MT) mRNA",
  "assay": "Bioavailability of different zinc compositions in chickens, MT mRNA in jejunum mucosal scrapings by QRT-PCR",
  "type": "in vivo, chicken",
  "conditions": "concluded from MT mRNA levels; 70 ppm zinc in diet",
  "experimental": "Chickens were fed a low zinc pre-feed diet for 20 days. On day 21, they were switched to a corn-soy diet supplemented with one of the following: 1) unsupplemented for zinc (control); 2) 70 ppm zinc from ZnOxide; 3) 70 ppm zinc from a zinc amino acid complex (Zn AAC); 4) 70 ppm zinc from Zn(HMTBA)2. On day 23, six birds from each treatment were weighed, sacrificed, and jejunum samples were collected. The lumen was rinsed with 3-4 ml of cold saline, the jejunum was cut open lengthwise, and the mucosal surface was scraped with a glass slide. Cell scrapings were collected into 0.9 ml of RNAlater. RNA was isolated as described in Example 1. QRT-PCR was performed as described in Example 1, and 18S-normalized MT mRNA expression was determined.",
  "note": "At least one structure is not confirmed: it was looked up by name or label, or the drawing left a doubt.",
  "data": [
    {"compound": "CSCCC(O)C(=O)[O-].CSCCC(O)C(=O)[O-].[Zn+2]", "note": "(stereo not shown) [Zn(HMTBA)2]", "values": [
      {"measurement": "relative bioavailability of zinc composition", "result": "more bioavailable than ZnOxide or the Zn AAC"}
    ]}
  ]
}
